Data as given in PubChem BioAssay AID1053208 (Peter MacCallum Cancer Centre, 2014)

- Assay: 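Genes whose silencing cuts survival of bone tumour cells only with doxorubicin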 (primary screen)
- System: mouse osteosarcoma cells, early-passage culture from an engineered mouse model of fibroblastic bone tumour
- Knock-down reagent: siRNA pool against mouse genes, 40 nM
- Duration: about 120 h (48 h before drug, then 72 h with drug)
- Treatment: doxorubicin 100 nM for 72 h, roughly 30-40% inhibitory dose
- Detection: 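Luminescent ATP signal taken as viability with or without 100 nM doxorubicin for 72 h; mean of two wells set against non-targeting siRNA and turned into robust z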
- Scale: viability z-score with doxorubicin: higher = more viable cells under doxorubicin; viability z-score without drug: higher = more viable cells with knock-down alone
- Call rule: 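a pool counts as active when its viability z-score with doxorubicin is -2 or below and its z-score without drug lies between -2 and 2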
Here is a random part of about 17,000 reagents tested. 788 of all reagents (4.7%) count as active. 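Calls rest on z-score classes alone; an extra cut-off of viability at most 70% of control was not applied to them.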 The numbers tell different reagents against one gene apart. Not all columns of the deposit are shown.

| Gene | reagent no. | combined z-score class | viability z-score with doxorubicin | viability z-score without drug | Outcome |
| --- | --- | --- | --- | --- | --- |
| Or8g24 | 1 | no change with or without drug | -1.46 | -1.35 | inactive |
| Slc44a4 | 1 | no change with or without drug | -0.67 | 1.85 | inactive |
| Nmt2 | 1 | high cell count with doxorubicin only | 2.02 | 0.34 | inactive |
| H2ax | 1 | no change with or without drug | 1.12 | 0.51 | inactive |
| Frat1 | 1 | no change with or without drug | 1.91 | 0.34 | inactive |
| Gm2716 | 1 | high cell count without drug only | 0.67 | 2.19 | inactive |
| Klra8 | 1 | no change with or without drug | 0 | -0.51 | inactive |
| Nisch | 1 | no change with or without drug | -1.01 | -0.84 | inactive |
| Gpc5 | 1 | no change with or without drug | -0.22 | 0.67 | inactive |
| Wipf2 | 1 | low cell count with doxorubicin only | -2.59 | 0 | active |
| Trrap | 1 | low cell count without drug only | -1.24 | -2.87 | inactive |
| 4930449I24Rik | 1 | high without drug; low with doxorubicin | -2.02 | 2.19 | inactive |
| Slc36a1 | 1 | no change with or without drug | -0.9 | -0.17 | inactive |
| Or10j7 | 1 | low cell count without drug only | -1.69 | -2.19 | inactive |
| Zfp385b | 1 | high cell count without drug only | 1.12 | 2.7 | inactive |
| Ssu2 | 1 | low cell count with doxorubicin only | -2.25 | 0.84 | active |
| Or10p1 | 1 | no change with or without drug | 0.9 | 0.17 | inactive |
| Rrp15 | 1 | no change with or without drug | 0.56 | -0.17 | inactive |
| Tmem25 | 1 | no change with or without drug | 0.67 | -0.17 | inactive |
| Drd3 | 1 | no change with or without drug | 0.34 | 1.01 | inactive |
| Adora2a | 1 | low cell count with doxorubicin only | -2.02 | -0.17 | active |
| Zswim9 | 1 | no change with or without drug | -0.45 | 0.17 | inactive |
| Or8i2 | 1 | no change with or without drug | 1.46 | 1.01 | inactive |
| Vmn1r74 | 1 | no change with or without drug | 1.12 | 0.17 | inactive |
| Eif2b4 | 1 | no change with or without drug | -0.79 | -0.84 | inactive |
| Brd4 | 1 | no change with or without drug | 0.45 | -0.84 | inactive |
| Vmn1r36 | 1 | no change with or without drug | -0.22 | 1.18 | inactive |
| 4833416I09RIK | 1 | no change with or without drug | -0.67 | -0.67 | inactive |
| Zscan5b | 1 | no change with or without drug | -1.12 | -0.17 | inactive |
| Supt3 | 1 | no change with or without drug | 0.79 | 0 | inactive |
| Ptgr2 | 1 | no change with or without drug | -1.12 | 1.18 | inactive |
| Sla | 1 | no change with or without drug | 0 | -0.51 | inactive |
| Pgd | 1 | low cell count with doxorubicin only | -2.7 | -1.85 | active |
| Mrtfb | 1 | no change with or without drug | -0.45 | -1.52 | inactive |
| Mrtfb | 2 | no change with or without drug | 1.12 | -1.52 | inactive |
| Wdr86 | 1 | no change with or without drug | 1.01 | 0.51 | inactive |
| E2f2 | 1 | high cell count with doxorubicin only | 2.25 | 1.18 | inactive |
| E2f2 | 2 | no change with or without drug | -1.91 | 0.51 | inactive |
| Tfdp2 | 1 | no change with or without drug | 0.45 | -0.34 | inactive |
| Daam1 | 1 | no change with or without drug | 0.22 | 0.67 | inactive |
| Ccl21d | 1 | no change with or without drug | -1.12 | -0.17 | inactive |
| Mars2 | 1 | no change with or without drug | 0 | 0 | inactive |
| Duoxa1 | 1 | no change with or without drug | 0.9 | -0.34 | inactive |
| Clmp | 1 | no change with or without drug | 0.34 | -0.34 | inactive |
| Dhx36 | 1 | no change with or without drug | 0.9 | 1.85 | inactive |
| Edf1 | 1 | no change with or without drug | 0.9 | 0.84 | inactive |
| Thbs3 | 1 | no change with or without drug | -1.12 | -1.01 | inactive |
| 1700025G04Rik | 1 | no change with or without drug | -0.9 | 1.52 | inactive |
| Rrbp1 | 1 | no change with or without drug | -0.45 | 0.67 | inactive |
| Tbc1d22b | 1 | no change with or without drug | 0 | 0.67 | inactive |
| Tubg2 | 1 | no change with or without drug | -1.12 | -1.52 | inactive |
| Srrm2 | 1 | no change with or without drug | 0.45 | 1.18 | inactive |
| Gtf3c6 | 1 | low cell count without drug only | 0.22 | -3.71 | inactive |
| Hars2 | 1 | no change with or without drug | 0.22 | 0.84 | inactive |
| Sspo | 1 | no change with or without drug | -1.12 | -0.84 | inactive |
| Rbm6 | 1 | high cell count with and without drug | 2.25 | 4.38 | inactive |
| Ca13 | 1 | no change with or without drug | -1.8 | -0.34 | inactive |
| Faf1 | 1 | no change with or without drug | -0.45 | -0.34 | inactive |
| Dbndd2 | 1 | no change with or without drug | -1.8 | 1.01 | inactive |
| Cldn18 | 1 | no change with or without drug | -1.12 | -0.34 | inactive |
| Dnaja2 | 1 | no change with or without drug | 1.46 | 0 | inactive |
| Pck1 | 1 | no change with or without drug | 0.22 | -0.51 | inactive |
| Or8g20 | 1 | no change with or without drug | -0.45 | -1.01 | inactive |

Copied from the list.
Result of Ccl21d in “combined z-score class”: no change with or without drug
Result of Srrm2 under “viability z-score without drug”: 1.18
Mrtfb #2, viability z-score with doxorubicin: 1.12
For “combined z-score class”, Gtf3c6 has low cell count without drug only
Value for Dbndd2 under “viability z-score with doxorubicin”: -1.8
Result of Clmp under “viability z-score without drug”: -0.34
